Among the data in paper PMC7819943, “Rice protein-binding microarrays: a tool to detect cis-acting elements near promoter regions in rice” are binding signal values, retold here.

Sequences of proteins named here, by UniProt entry; tags and fusion partners are left off.
UniProt Q0JBA9, entry or part of it: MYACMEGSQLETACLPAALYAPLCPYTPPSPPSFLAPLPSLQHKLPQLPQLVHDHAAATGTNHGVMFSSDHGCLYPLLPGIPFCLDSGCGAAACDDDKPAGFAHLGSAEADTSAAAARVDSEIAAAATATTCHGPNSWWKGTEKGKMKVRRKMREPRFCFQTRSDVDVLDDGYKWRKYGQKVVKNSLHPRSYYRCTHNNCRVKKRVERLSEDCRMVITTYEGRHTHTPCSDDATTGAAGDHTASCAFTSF

The other results are listed elsewhere or left out.

The target in the experiment is OsWRKY34 (Oryza sativa, UniProt Q0JBA9 1-250). Kind of experiment: protein-binding microarray (RPBM); PBS, 2% BSA, 51.3 ng/ul salmon testes DNA, 50 uM zinc acetate, 200 nM TF, 25 C, 1 h; high values mean tight binding. The conditions noted are these: protein: recombinant; tags: N-terminal polyhistidine and DsRed monomer fusion (pET32a); label: CyDye5-dUTP incorporated in the synthesized complementary strand; 3' TTTTT single-stranded linker to array surface; dsDNA, one strand shown. In a few lines: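 In PBS with 2% BSA, salmon testes DNA and 50 µM zinc acetate, 200 nM protein was incubated on a custom Agilent array at 25 °C for 1 h and then washed off. The array had been made double-stranded by primer extension with Cy5-dUTP and blocked with 2% BSA. The proteins were transcription factors fused N-terminally to polyhistidine and DsRed, expressed in E. coli BL21-CodonPlus and purified on Ni–NTA. The binding signal is per-feature fluorescence intensity (arbitrary units) from an Axon 4000B scanner.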
With “GATTGTGTGATGTATGTGTGGGGTGCTGGTTATGCTGATTCGGAGTCACCTAGTGCAG”, the binding signal is 14400 fluorescence intensity (a.u.).

As to “GGCCGGCACTAGTCGCTTCCGTCCATTGGCGCTACCCTACCGGAGTCACCTAGTGCAG”, the binding signal was 10800 fluorescence intensity (a.u.).

On to “GCGGAGGTGGTGTGGGTGGGTGAGTGAGTGAGGAGTGATGCGGAGTCACCTAGTGCAG”, for which the binding signal is 17400 fluorescence intensity (a.u.).

“GTCGTGCTTGAATCTGCGTTGTGTGGATTTTTTTTCCCCGCGGAGTCACCTAGTGCAG”: the binding signal was 8740 fluorescence intensity (a.u.).

Regarding “TATATATATATATATCCGATCCATTTTCATCCCCACTTAACGGAGTCACCTAGTGCAG”, the binding signal is 8250 fluorescence intensity (a.u.).

Consider “ATTTTGCCATTTTGTATGCTCTATAAATTTGATATGTTTTCGGAGTCACCTAGTGCAG”, for which the binding signal is 9640 fluorescence intensity (a.u.).

As to “TCCGTAACTACTCTCTGCTCTCGTCGTTGTTTCATTTGTTCGGAGTCACCTAGTGCAG”, the binding signal is 10300 fluorescence intensity (a.u.).

Take “CTGCCTGAGCTCACTTGACCTTACCACATGGGTTCAGATTCGGAGTCACCTAGTGCAG”: the binding signal was 8620 fluorescence intensity (a.u.).

Take “CTCCGCCTCCGCCTCCGCCTCCCTCCTCACGCACGCCAAACGGAGTCACCTAGTGCAG”: the binding signal is 8360 fluorescence intensity (a.u.).

Take “TTATCATGTCTACTACTAATCGGGTTGGGAATTGGAATTTCGGAGTCACCTAGTGCAG”: the binding signal was 11400 fluorescence intensity (a.u.).

In the case of “TTTGTGTTGTTTGTGCTGTGTTTGCGCCGTTGACTCTGCCCGGAGTCACCTAGTGCAG”, the binding signal was 13600 fluorescence intensity (a.u.).

On to “CCACCCGCCTCTCAGTCTCTTTCCGACCACGCATATATGTCGGAGTCACCTAGTGCAG”, for which the binding signal is 14800 fluorescence intensity (a.u.).

“CCAATTTCATTCACTCACACGATCCACATGTTCACAAAACCGGAGTCACCTAGTGCAG”: the binding signal is 9850 fluorescence intensity (a.u.).

Consider “TTCTATCCAAGCCCAACTCACACCCACGCTGCTCGGCTCGCGGAGTCACCTAGTGCAG”, for which the binding signal was 8160 fluorescence intensity (a.u.).

In the case of “TCTCTCTTACTGTCGCTCTTCTAGCCGGTCTGTTCAAACCCGGAGTCACCTAGTGCAG”, the binding signal is 10500 fluorescence intensity (a.u.).

Take “ACCTAGTCCAAAACCACCTGTACACTGTTCTCTCTAAAAACGGAGTCACCTAGTGCAG”: the binding signal is 8680 fluorescence intensity (a.u.).

In the case of “TAACCTCTGCATGTATGTTTCTTTTCGTTCTGATCATTCACGGAGTCACCTAGTGCAG”, the binding signal is 11000 fluorescence intensity (a.u.).

On to “ATAAAGGGCTGGTTTGGTTTGTGGCCTAACTTGACCTTACCGGAGTCACCTAGTGCAG”, for which the binding signal is 8180 fluorescence intensity (a.u.).

As to “TGAAGATGTTTTTGCTGGTACTTTGGTACGTTATCCGTATCGGAGTCACCTAGTGCAG”, the binding signal was 8170 fluorescence intensity (a.u.).

“CCATGTCCGGATTCTCTAGGATTGCCTCCAATTTCTTCGCCGGAGTCACCTAGTGCAG”: the binding signal was 8890 fluorescence intensity (a.u.).

As to “TCGCGACCTCTCATCTATCGATCTTTGCATACATATATATCGGAGTCACCTAGTGCAG”, the binding signal was 17800 fluorescence intensity (a.u.).

As to “ACTAGTTATGCACTTTACTTTCATATCTCGTCTTCCGCACCGGAGTCACCTAGTGCAG”, the binding signal was 9010 fluorescence intensity (a.u.).

Regarding “TCACCGCCTCCGACCCGTCTGGCCAAATTCGCGCACCTCCCGGAGTCACCTAGTGCAG”, the binding signal is 9700 fluorescence intensity (a.u.).

As to “CACTAATATGTGCTGTTATAAATGCTATTCCTTTGTTATTCGGAGTCACCTAGTGCAG”, the binding signal is 8740 fluorescence intensity (a.u.).

For “TTCCTTCATATTATGTGGCAACTCTCCGCGAAGTTCATTTCGGAGTCACCTAGTGCAG”, the binding signal is 8750 fluorescence intensity (a.u.).

As for “ACGTTTGCGTTGAGGTGCTCTCTCTGAATTTTTCTTGTGCCGGAGTCACCTAGTGCAG”, the binding signal is 8970 fluorescence intensity (a.u.).

As for “CTTATGTACTTATGTAGTACTTATGTTGTTTGTTTTTTTTCGGAGTCACCTAGTGCAG”, the binding signal was 10800 fluorescence intensity (a.u.).

As for “ATCCTAAACAACATCCGGTACAATCTTTTTTTCTCAGCCCCGGAGTCACCTAGTGCAG”, the binding signal is 8130 fluorescence intensity (a.u.).

With “TGTCCATCCCATCCCATCCCAAGCGAGGCCGCGCGGCCTCCGGAGTCACCTAGTGCAG”, the binding signal was 8080 fluorescence intensity (a.u.).

In the case of “TTCGCCTCGCCTCGCCTCGCTCGCTGTCGCTTCCTCTCTCCGGAGTCACCTAGTGCAG”, the binding signal was 8770 fluorescence intensity (a.u.).

Turning to “GCCATCACCCGTCGTGTCGCTCTCGAGCCCCGCACGCCATCGGAGTCACCTAGTGCAG”, the binding signal was 9020 fluorescence intensity (a.u.).

On to “CTCATACCCAGCGGCCCGCGGGCAGGGCTAGCTCGTTGACCGGAGTCACCTAGTGCAG”, for which the binding signal is 11500 fluorescence intensity (a.u.).

“ATAACTTCGACTACATTCATATATATGCGTGACTTACTCCCGGAGTCACCTAGTGCAG”: the binding signal is 9840 fluorescence intensity (a.u.).

On to “CGTGACACAATCGGACGCGGCTTGCCTGCTCCCTCGTTCTCGGAGTCACCTAGTGCAG”, for which the binding signal was 8700 fluorescence intensity (a.u.).

Consider “AGACGCGCTCTCCCTCTCGCCTCGCGGTCGCCTCGCTTTCCGGAGTCACCTAGTGCAG”, for which the binding signal is 9830 fluorescence intensity (a.u.).

“ACTTATATACTTGGGGCAACTCTCCTTGATTCCCGCTTCTCGGAGTCACCTAGTGCAG”: the binding signal was 9160 fluorescence intensity (a.u.).

Consider “CGATCCCACCGACTCCCGGCCACCTCTGCTTCCCCGGCGACGGAGTCACCTAGTGCAG”, for which the binding signal is 9140 fluorescence intensity (a.u.).

Regarding “TAGATGTTTACTAGTACTCCCCGTTGAATAGTCCCACATTCGGAGTCACCTAGTGCAG”, the binding signal is 8050 fluorescence intensity (a.u.).

Take “TTTTCACCGTCGTTGGTCTGCAGGCGGTTCTCCCCTCTACCGGAGTCACCTAGTGCAG”: the binding signal was 8490 fluorescence intensity (a.u.).

On to “TCCCCAGGGGAATCGGACTCTTTTTGTTTTGTTTTTTTTTCGGAGTCACCTAGTGCAG”, for which the binding signal is 9420 fluorescence intensity (a.u.).

Turning to “ACTGCTGCTGCATCGGCGCCTTCACCAAGATGTCAACGGACGGAGTCACCTAGTGCAG”, the binding signal was 8350 fluorescence intensity (a.u.).

For “CCTCATCACTCGCTTCTCCTTGCTTACACACCATCCCATCCGGAGTCACCTAGTGCAG”, the binding signal was 8310 fluorescence intensity (a.u.).

On to “GAGCTACCCTACGCCTGCTCTACTTGGCGAAGCCCAGCACCGGAGTCACCTAGTGCAG”, for which the binding signal is 8190 fluorescence intensity (a.u.).

Take “GCCCAACTCCCATCTTCCCTTTTGTTGTTTTCCCTGGGTACGGAGTCACCTAGTGCAG”: the binding signal is 8220 fluorescence intensity (a.u.).

Take “TGGTTTGTATTAATTTGTTCATTTCCGATTCAATTTTATTCGGAGTCACCTAGTGCAG”: the binding signal is 8080 fluorescence intensity (a.u.).

Turning to “GCAGCTCAAAAAGCTAGCTACTTGTTTCTGACTTGTATCACGGAGTCACCTAGTGCAG”, the binding signal is 8560 fluorescence intensity (a.u.).

As for “GAGAGCGAACGGCCGTCTGCCACGTCATTTTCGCCGCCCTCGGAGTCACCTAGTGCAG”, the binding signal was 8310 fluorescence intensity (a.u.).

For the sequence “CTTCTTCTTCTTCTTTCTTGCAATTTGAGGAGGTTTGCTCCGGAGTCACCTAGTGCAG”, the binding signal is 8420 fluorescence intensity (a.u.).

On to “ATCCCTATAAGTTTTTCCTGTGTTCTGTAACCTTATATTTCGGAGTCACCTAGTGCAG”, for which the binding signal was 8200 fluorescence intensity (a.u.).

Regarding “CGCGAGTGGTGGAGGAGGTGGTGGTTAATAACTGGTTAATCGGAGTCACCTAGTGCAG”, the binding signal was 8550 fluorescence intensity (a.u.).

With “TGCGCTGGCGGGCCTTGTTAGTCGTACCCCATCGGCACTCCGGAGTCACCTAGTGCAG”, the binding signal was 8770 fluorescence intensity (a.u.).

Turning to “GGACTATTTCTGGGATAAGTTTTTTCAGGGGTCTATTTATCGGAGTCACCTAGTGCAG”, the binding signal was 9380 fluorescence intensity (a.u.).

Consider “TTTTATATCATCGGGCGTCCGATTTGTAGCTCTCTCCGAACGGAGTCACCTAGTGCAG”, for which the binding signal was 8730 fluorescence intensity (a.u.).

With “ATATTACCGACCAAGTCGTTCTTCACTGATATTAATAGTTCGGAGTCACCTAGTGCAG”, the binding signal was 8350 fluorescence intensity (a.u.).
